For 22 compounds, survivor count and T/C results are on record in PubChem BioAssay AID192 (DTP/NCI, 2004).

This assay deals with BDF1 mice, B16 melanoma ip, median survival T/C. As to the kind of experiment: NCI In Vivo Anticancer Drug Screen. Data for tumor model B16 Melanoma (intraperitoneal) in B6D2F1 (BDF1) mice. Particulars: T/C endpoint: median survival time, higher T/C = longer survival. The procedure, abridged: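 In this screen, activity was judged from survival or tumor size in treated versus vehicle-treated tumor-bearing mice, reported as T/C.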

Setting [1] is: dose: 100.0 mg/kg/injection, schedule: Q01DX009 (ip), vehicle: saline with Tween-80.
The mark [2] stands for this setting: dose: 200.0 mg/kg/injection, schedule: Q01DX009 (ip), vehicle: saline with Tween-80.
Setting [3] is: dose: 400.0 mg/kg/injection, schedule: Q01DX009 (ip), vehicle: saline with Tween-80.
Setting [4] is: dose: 100.0 mg/kg/injection, schedule: Q01DX001 (ip), vehicle: water.
[5] abbreviates: dose: 200.0 mg/kg/injection, schedule: Q01DX001 (ip), vehicle: water.
The mark [6] stands for this setting: dose: 100.0 mg/kg/injection, schedule: Q01DX009 (ip), vehicle: Klucel (hydroxypropylcellulose) (HPC).

The list does not hold the whole screen: it gathers tests that were run many times, whatever their T/C, doses with no T/C, and many T/C values between a quarter and a half above the control. Other doses and runs of a compound stand elsewhere. T/C is the treated group as % of the vehicle group. Some doses have a count of surviving animals in place of a T/C: the source files T/C as zero there, which appears to mark a toxic dose or a test without result, not a measured value. Some doses without a T/C left all or most animals alive at the check, yet need not have been tolerated: survival well below the control is almost never listed, so the zero probably covers shortened survival too. Counts of survivors are from the toxicity check (mostly the fifth day) where no day follows; animals may have died later. Schedule codes are those of the source, taken here to give the interval after Q, in days (D) or hours (H), and the number of doses after X. Some structures stand for samples that the source files as different forms (salt, stereo form or complex); doses refer to the form tested. Signs of the kind (2×) say how often a value occurs here. Some doses were run more than once; their values stand side by side, smallest first. For survival time, this PubChem deposit counts one and a half times the control or more as active, and values a quarter to a half above the control carry no call in these data; other NCI protocols may use other cut-offs. Some T/C values are followed by the survivors on the day toxicity was checked, most often the fifth; without a count, all were alive then.

In the case of `CCCCCCCCCCCCCCCC[N+]1(C)CCN(SN2CC[N+](C)(CCCCCCCCCCCCCCCC)CC2)CC1`, the survivor count by setting is: (dose: 12.5 mg/kg/injection, schedule: Q01DX009 (ip), vehicle: saline) 10 of 10; (dose: 25.0 mg/kg/injection, schedule: Q01DX009 (ip), vehicle: saline) 10 of 10.
As to `O=C1CCCN1`, for the setting “dose: 200.0 mg/kg/injection, schedule: Q01DX009 (ip), vehicle: saline”, the survivor count is listed as 6 of 6.
On to `Cc1cc(C)c(CCl)cc1CCl`, for which the survivor count (dose: 80.0 mg/kg/injection, schedule: Q04DX003 (ip), vehicle: saline with Tween-80) is 9 of 10.
`CNc1n[n+](-c2ccccc2)no1`: where the note is “dose: 50.0 mg/kg/injection, schedule: Q01DX009 (ip), vehicle: saline”, the survivor count is on record as 8 of 10.
Take `CS(=O)(=O)OCCN(CCOS(C)(=O)=O)c1ccc(C=Nc2ccc(-c3csc(Cc4ccccc4)n3)cc2)c(Cl)c1`: the T/C (dose: 12.5 mg/kg/injection, schedule: Q01DX009 (ip), vehicle: Klucel (hydroxypropylcellulose) (HPC)) is 128 % of control; the T/C (dose: 25.0 mg/kg/injection, schedule: Q01DX009 (ip), vehicle: Klucel (hydroxypropylcellulose) (HPC)) is 132 and 142 % of control.
For the compound `NC(=S)N/N=C/c1ccc(OC(=O)COc2ccccc2)cn1`, the T/C by setting is: under setting [1], 126 and 139 % of control; under setting [2], 129 and 131 % of control. The survivor count by setting is: under setting [3], 10 of 10; (dose: 800.0 mg/kg/injection, schedule: Q01DX009 (ip), vehicle: saline with Tween-80) 10 of 10.
Regarding `CCOC(C)C(/C=N/NC(N)=S)=NNC(N)=S` (stereo not drawn), the survivor count is listed as 10 of 10 under setting [1] and 9 of 10 under setting [2].
For `O=NN(CCF)C(=O)N[C@H]1CCCC[C@H]1O`, the T/C (dose: 30.0 mg/kg/injection, schedule: Q01DX001 (ip), vehicle: saline) was 149 % of control. For the same compound, the survivor count (dose: 120.0 mg/kg/injection, schedule: Q01DX001 (ip), vehicle: saline) is reported as 4 of 10 on day 6.
`CCOC(=O)N1c2ccccc2C=CC1OCC` (stereo not drawn): the survivor count runs as follows: (dose: 50.0 mg/kg/injection, schedule: Q04DX003 (ip), vehicle: Klucel (hydroxypropylcellulose) (HPC)) 9 of 10; (dose: 100.0 mg/kg/injection, schedule: Q04DX003 (ip), vehicle: Klucel (hydroxypropylcellulose) (HPC)) 7 of 10; (dose: 100.0 mg/kg/injection, schedule: Q04DX003 (ip), vehicle: saline with Tween-80) 2 of 10; (dose: 200.0 mg/kg/injection, schedule: Q04DX003 (ip), vehicle: saline with Tween-80) 0 of 10; (dose: 400.0 mg/kg/injection, schedule: Q04DX003 (ip), vehicle: saline with Tween-80) 0 of 10.
As for `COc1cccc2c1C(=O)c1c(O)c3c(c(O)c1C2=O)C[C@@](O)(C(C)=O)C[C@@H]3OC1CC(O)C(O)C(C)O1` (stereo partly drawn), the T/C by setting is: (dose: 12.5 mg/kg/injection, schedule: Q01DX001 (ip), vehicle: water, evaluated on day 40) 113 % of control; (dose: 12.5 mg/kg/injection, schedule: Q01DX001 (ip), vehicle: water, evaluated on day 60) 113, 127 [9 of 10 alive], 132 % of control [9 of 10 alive]; (dose: 25.0 mg/kg/injection, schedule: Q01DX001 (ip), vehicle: water, evaluated on day 40) 126 % of control; (dose: 25.0 mg/kg/injection, schedule: Q01DX001 (ip), vehicle: water, evaluated on day 60) 139, 140, 147 % of control; (dose: 50.0 mg/kg/injection, schedule: Q01DX001 (ip), vehicle: water, evaluated on day 40) 146 % of control; (dose: 50.0 mg/kg/injection, schedule: Q01DX001 (ip), vehicle: water, evaluated on day 60) 140, 143, 153 % of control. Also, the T/C under setting [4] was 137, 152 [9 of 10 alive], 179 % of control [8 of 10 alive] and the T/C under setting [5] is 119 % of control. The survivor count under setting [4] was 6 of 10 and the survivor count under setting [5] is reported as 2 of 10, 4 of 10, 5 of 10.
For `CCCCC1CCCCCCc2[nH]c(/C=C3\N=C(c4ccc[nH]4)C=C3OC)cc21` (stereo not drawn), the survivor count is listed as 10 of 10 (dose: 1000.0 micrograms/kg/injection, schedule: Q01DX009 (ip), vehicle: saline with Tween-80) and 8 of 10 (dose: 2000.0 micrograms/kg/injection, schedule: Q01DX009 (ip), vehicle: saline with Tween-80).
On to `CN(C(=N)N)c1ccc(C(=O)Oc2ccc([N+](=O)[O-])cc2)cc1`, for which the survivor count (dose: 400.0 mg/kg/injection, schedule: Q01DX009 (ip), vehicle: Klucel (hydroxypropylcellulose) (HPC)) was 1 of 10.
Turning to `O=Cc1c(O)c2ccccc2[nH]c1=O`, the T/C under setting [1] was 132 % of control [9 of 10 alive]. In addition, the survivor count under setting [2] is 3 of 10 and 8 of 10.
On to `C[C@H]1[C@H](O)[C@H]2[C@@H](CCC3=CC(=O)CC[C@@]32C)[C@@H]2CC[C@H](O)[C@@]12C`, for which the survivor count under setting [3] is given as 6 of 6.
For `CN(C)CCOc1ccccn1`, the survivor count under setting [3] is reported as 10 of 10.
For the compound `CN(C)N=C1CCCC1`, the T/C was 127 % of control (dose: 25.0 mg/kg/injection, schedule: Q04DX003 (ip), vehicle: saline); 127 % of control (dose: 50.0 mg/kg/injection, schedule: Q04DX003 (ip), vehicle: saline); 127 % of control (dose: 100.0 mg/kg/injection, schedule: Q04DX003 (ip), vehicle: saline).
Take `CC(=O)[O][Pb]([O]C(C)=O)([c]1ccccc1)[c]1ccccc1`: the survivor count under setting [6] is reported as 10 of 10.
For the compound `NC(C/[N+]([O-])=N/O)C(=O)O` (stereo not drawn), the survivor count runs as follows: (dose: 125.0 mg/kg/injection, schedule: Q01DX009 (ip), vehicle: saline) 10 of 10 (2×); (dose: 125.0 mg/kg/injection, schedule: Q01DX009 (ip), vehicle: water) 10 of 10; (dose: 250.0 mg/kg/injection, schedule: Q01DX009 (ip), vehicle: saline) 10 of 10; (dose: 250.0 mg/kg/injection, schedule: Q01DX009 (ip), vehicle: water) 10 of 10; (dose: 500.0 mg/kg/injection, schedule: Q01DX009 (ip), vehicle: saline) 0 of 10; (dose: 500.0 mg/kg/injection, schedule: Q01DX009 (ip), vehicle: water) 6 of 10. Also, under “dose: 500.0 mg/kg/injection, schedule: Q04DX003 (ip), vehicle: saline”, the survivor count is recorded as 10 of 10.
As to `CN=C(N)N/N=C(\C)c1ccc2oc3ccc(/C(C)=N/NC(N)=NC)cc3c2c1`, the survivor count is 4 of 10 under setting [1] and 0 of 10 under setting [2].
For `CCCCCCCCCc1ccc(OC(=O)CCC)cc1`, the survivor count reads like this: (dose: 50.0 mg/kg/injection, schedule: Q01DX009 (ip), vehicle: Klucel (hydroxypropylcellulose) (HPC)) 10 of 10; under setting [6], 10 of 10; (dose: 200.0 mg/kg/injection, schedule: Q01DX009 (ip), vehicle: Klucel (hydroxypropylcellulose) (HPC)) 10 of 10.
With `COC1C(O)CC(OC2CC(OC3CC(O[C@@H]4C(=O)c5c(cc6cc(OC7CC(OC8CC(O)C(O)C(C)O8)C(O)C(C)O7)c(C)c(O)c6c5O)C[C@H]4[C@H](OC)C(=O)[C@@H](O)[C@@H](C)O)OC(C)C3O)OC(C)C2O)OC1C` (stereo partly drawn), the T/C was 130 % of control (dose: 375.0 micrograms/kg/injection, schedule: Q01DX009 (ip), vehicle: water); 127 % of control (dose: 750.0 micrograms/kg/injection, schedule: Q01DX009 (ip), vehicle: water); 125 and 134 % of control [9 of 10 alive] (dose: 1500.0 micrograms/kg/injection, schedule: Q01DX009 (ip), vehicle: water). For the same compound, the survivor count (dose: 3000.0 micrograms/kg/injection, schedule: Q01DX009 (ip), vehicle: water) is 9 of 10.
As for `Cc1cc(Cl)ccc1NC(=O)Nc1ccc(Cl)c(Cl)c1`, the survivor count (dose: 200.0 mg/kg/injection, schedule: Q04DX003 (ip), vehicle: Klucel (hydroxypropylcellulose) (HPC)) is 10 of 10.
